# Source: paper PMC8384837
# Numbering of substitutions follows the chain as printed. The list shows a part of the results. For some of these results: At the low end of the ranking the order means little.
# Key:
# Settings in all cases: yeast three-hybrid, YBZ-1, SC-Leu-His + 0.5 mM 3-AT, 4 days
# [1] = molecular target: T1, PUM1 PUF domain R5-RKQ C1007R + R1008K (Homo sapiens) (UniProt Q14671)
# T1 sequence: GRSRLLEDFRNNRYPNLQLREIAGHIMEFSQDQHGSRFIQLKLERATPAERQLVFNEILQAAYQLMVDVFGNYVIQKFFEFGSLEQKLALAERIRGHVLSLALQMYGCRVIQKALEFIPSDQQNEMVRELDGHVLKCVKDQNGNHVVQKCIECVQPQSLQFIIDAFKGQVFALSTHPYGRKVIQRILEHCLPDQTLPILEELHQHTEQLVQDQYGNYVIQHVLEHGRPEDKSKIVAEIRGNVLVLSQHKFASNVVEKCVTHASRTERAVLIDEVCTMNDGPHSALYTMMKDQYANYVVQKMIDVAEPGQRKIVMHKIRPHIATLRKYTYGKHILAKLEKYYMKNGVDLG
# [2] = molecular target: T2, PUM1 PUF domain R5-RKS C1007R + R1008K + Q1011S (Homo sapiens) (UniProt Q14671)
# T2 sequence: T1 sequence with Q184S
# [3] = molecular target: T3, PUM1 PUF domain R5-RKV C1007R + R1008K + Q1011V (UniProt Q14671)
# T3 sequence: T1 sequence with Q184V
# [4] = molecular target: T4, PUM1 PUF domain R5-RLT C1007R + R1008L + Q1011T (UniProt Q14671)
# T4 sequence: T1 sequence with K181L, Q184T
# [5] = molecular target: T5, PUM1 PUF domain R5-RMG C1007R + R1008M + Q1011G (UniProt Q14671)
# T5 sequence: T1 sequence with K181M, Q184G
# [6] = molecular target: T6, PUM1 PUF domain R5-RMR C1007R + R1008M + Q1011R (UniProt Q14671)
# T6 sequence: T1 sequence with K181M, Q184R
# [7] = molecular target: T7, PUM1 PUF domain R5-RMT C1007R + R1008M + Q1011T (UniProt Q14671)
# T7 sequence: T1 sequence with K181M, Q184T
# [8] = molecular target: T8, PUM1 PUF domain R5-RMV C1007R + R1008M + Q1011V (UniProt Q14671)
# T8 sequence: T1 sequence with K181M, Q184V
# [9] = molecular target: T9, PUM1 PUF domain R5-RMW C1007R + R1008M + Q1011W (UniProt Q14671)
# T9 sequence: T1 sequence with K181M, Q184W
# [10] = molecular target: T10, PUM1 PUF domain R5-RNE C1007R + R1008N + Q1011E (Homo sapiens) (UniProt Q14671)
# T10 sequence: T1 sequence with K181N, Q184E
# [11] = molecular target: T11, PUM1 PUF domain R5-RNL C1007R + R1008N + Q1011L (Homo sapiens) (UniProt Q14671)
# T11 sequence: T1 sequence with K181N, Q184L
# [12] = molecular target: T12, PUM1 PUF domain R5-RNS C1007R + R1008N + Q1011S (Homo sapiens) (UniProt Q14671)
# T12 sequence: T1 sequence with K181N, Q184S
# [13] = molecular target: T13, PUM1 PUF domain R5-RNT C1007R + R1008N + Q1011T (Homo sapiens) (UniProt Q14671)
# T13 sequence: T1 sequence with K181N, Q184T
# [14] = molecular target: T14, PUM1 PUF domain R5-RNV C1007R + R1008N + Q1011V (UniProt Q14671)
# T14 sequence: T1 sequence with K181N, Q184V
# [15] = molecular target: T15, PUM1 PUF domain R5-RPM C1007R + R1008P + Q1011M (UniProt Q14671)
# T15 sequence: T1 sequence with K181P, Q184M
# [16] = molecular target: T16, PUM1 PUF domain R5-RQE C1007R + R1008Q + Q1011E (UniProt Q14671)
# T16 sequence: T1 sequence with K181Q, Q184E
# [17] = molecular target: T17, PUM1 PUF domain R5-RQH C1007R + R1008Q + Q1011H (UniProt Q14671)
# T17 sequence: T1 sequence with K181Q, Q184H
# [18] = molecular target: T18, PUM1 PUF domain R5-RQM C1007R + R1008Q + Q1011M (UniProt Q14671)
# T18 sequence: T1 sequence with K181Q, Q184M
# [19] = molecular target: T19, PUM1 PUF domain R5-RQV C1007R + R1008Q + Q1011V (Homo sapiens) (UniProt Q14671)
# T19 sequence: T1 sequence with K181Q, Q184V
# [20] = molecular target: T20, PUM1 PUF domain R5-RRI C1007R + Q1011I (Homo sapiens) (UniProt Q14671)
# T20 sequence: T1 sequence with K181R, Q184I
# [21] = molecular target: T21, PUM1 PUF domain R5-RRY C1007R + Q1011Y (UniProt Q14671)
# T21 sequence: T1 sequence with K181R, Q184Y
# [22] = molecular target: T22, PUM1 PUF domain R5-RSD C1007R + R1008S + Q1011D (UniProt Q14671)
# T22 sequence: T1 sequence with K181S, Q184D
# [23] = molecular target: T23, PUM1 PUF domain R5-RSG C1007R + R1008S + Q1011G (UniProt Q14671)
# T23 sequence: T1 sequence with K181S, Q184G
# [24] = molecular target: T24, PUM1 PUF domain R5-RSI C1007R + R1008S + Q1011I (UniProt Q14671)
# T24 sequence: T1 sequence with K181S, Q184I
# [25] = molecular target: T25, PUM1 PUF domain R5-RSP C1007R + R1008S + Q1011P (UniProt Q14671)
# T25 sequence: T1 sequence with K181S, Q184P
# [26] = molecular target: T26, PUM1 PUF domain R5-RSR C1007R + R1008S + Q1011R (Homo sapiens) (UniProt Q14671)
# T26 sequence: T1 sequence with K181S, Q184R
# [27] = molecular target: T27, PUM1 PUF domain R5-RSS C1007R + R1008S + Q1011S (Homo sapiens) (UniProt Q14671)
# T27 sequence: T1 sequence with K181S, Q184S
# [28] = molecular target: T28, PUM1 PUF domain R5-RTL C1007R + R1008T + Q1011L (UniProt Q14671)
# T28 sequence: T1 sequence with K181T, Q184L
# [29] = molecular target: T29, PUM1 PUF domain R5-RTR C1007R + R1008T + Q1011R (UniProt Q14671)
# T29 sequence: T1 sequence with K181T, Q184R
# [30] = molecular target: T30, PUM1 PUF domain R5-SGK C1007S + R1008G + Q1011K (UniProt Q14671)
# T30 sequence: T1 sequence with R180S, K181G, Q184K
# [31] = molecular target: T31, PUM1 PUF domain R5-SGR C1007S + R1008G + Q1011R (Homo sapiens) (UniProt Q14671)
# T31 sequence: T1 sequence with R180S, K181G, Q184R
# [32] = molecular target: T32, PUM1 PUF domain R5-SRL C1007S + Q1011L (Homo sapiens) (UniProt Q14671)
# T32 sequence: T1 sequence with R180S, K181R, Q184L
# [33] = molecular target: T33, PUM1 PUF domain R5-SRT C1007S + Q1011T (Homo sapiens) (UniProt Q14671)
# T33 sequence: T1 sequence with R180S, K181R, Q184T
# [34] = molecular target: T34, PUM1 PUF domain R5-SSR C1007S + R1008S + Q1011R (UniProt Q14671)
# T34 sequence: T1 sequence with R180S, K181S, Q184R
# [35] = molecular target: T35, PUM1 PUF domain R5-TNG C1007T + R1008N + Q1011G (UniProt Q14671)
# T35 sequence: T1 sequence with R180T, K181N, Q184G
# [36] = molecular target: T36, PUM1 PUF domain R5-TPR C1007T + R1008P + Q1011R (UniProt Q14671)
# T36 sequence: T1 sequence with R180T, K181P, Q184R
# [37] = molecular target: T37, PUM1 PUF domain R5-TRL C1007T + Q1011L (UniProt Q14671)
# T37 sequence: T1 sequence with R180T, K181R, Q184L
# [38] = molecular target: T38, PUM1 PUF domain R5-TRY C1007T + Q1011Y (Homo sapiens) (UniProt Q14671)
# T38 sequence: T1 sequence with R180T, K181R, Q184Y
# [39] = molecular target: T39, PUM1 PUF domain R5-TTR C1007T + R1008T + Q1011R (Homo sapiens) (UniProt Q14671)
# T39 sequence: T1 sequence with R180T, K181T, Q184R
# [40] = molecular target: T40, PUM1 PUF domain R5-VHL C1007V + R1008H + Q1011L (Homo sapiens) (UniProt Q14671)
# T40 sequence: T1 sequence with R180V, K181H, Q184L
# [41] = molecular target: T41, PUM1 PUF domain R5-VRV C1007V + Q1011V (UniProt Q14671)
# T41 sequence: T1 sequence with R180V, K181R, Q184V
# [42] = molecular target: T42, PUM1 PUF domain R5-VYF C1007V + R1008Y + Q1011F (UniProt Q14671)
# T42 sequence: T1 sequence with R180V, K181Y, Q184F
# [43] = molecular target: T43, PUM1 PUF domain R5-WSR C1007W + R1008S + Q1011R (UniProt Q14671)
# T43 sequence: T1 sequence with R180W, K181S, Q184R
sequence,measurement,setting,value
GGCUAGAACUAGUGGAUCCCCCGGCGCCCGGCGGCUCGAGCCCGGGUAAGUGUGAAUAGUCUGCAUGCCGCCGGGCGCCAUGCCUGCAGGUCGACUCUAGAAAACAUG,binding signal (log2 enrichment (interaction score)),[1],0.72
same,binding signal (log2 enrichment (interaction score)),[2],0.4
same,binding signal (log2 enrichment (interaction score)),[3],-3.69
same,binding signal (log2 enrichment (interaction score)),[4],-6.03
same,binding signal (log2 enrichment (interaction score)),[5],-3.25
same,binding signal (log2 enrichment (interaction score)),[6],-6.04
same,binding signal (log2 enrichment (interaction score)),[7],-5.4
same,binding signal (log2 enrichment (interaction score)),[8],-4.75
same,binding signal (log2 enrichment (interaction score)),[9],-3.1
same,binding signal (log2 enrichment (interaction score)),[10],0.01
same,binding signal (log2 enrichment (interaction score)),[11],-1.99
same,binding signal (log2 enrichment (interaction score)),[12],0.34
same,binding signal (log2 enrichment (interaction score)),[13],-1.13
same,binding signal (log2 enrichment (interaction score)),[14],-3.76
same,binding signal (log2 enrichment (interaction score)),[15],-3.89
same,binding signal (log2 enrichment (interaction score)),[16],-3.64
same,binding signal (log2 enrichment (interaction score)),[17],-2.62
same,binding signal (log2 enrichment (interaction score)),[18],< -9.81
same,binding signal (log2 enrichment (interaction score)),[19],-0.19
same,binding signal (log2 enrichment (interaction score)),[20],0.07
same,binding signal (log2 enrichment (interaction score)),[21],-3.11
same,binding signal (log2 enrichment (interaction score)),[22],-6.25
same,binding signal (log2 enrichment (interaction score)),[23],-2.19
same,binding signal (log2 enrichment (interaction score)),[24],-3.12
same,binding signal (log2 enrichment (interaction score)),[25],-3.75
same,binding signal (log2 enrichment (interaction score)),[26],0.1
same,binding signal (log2 enrichment (interaction score)),[27],-1.74
same,binding signal (log2 enrichment (interaction score)),[28],-4.81
same,binding signal (log2 enrichment (interaction score)),[29],-3.78
same,binding signal (log2 enrichment (interaction score)),[30],-4.17
same,binding signal (log2 enrichment (interaction score)),[31],-0.56
same,binding signal (log2 enrichment (interaction score)),[32],-0.05
same,binding signal (log2 enrichment (interaction score)),[33],-1.01
same,binding signal (log2 enrichment (interaction score)),[34],-3.59
same,binding signal (log2 enrichment (interaction score)),[35],-5.24
same,binding signal (log2 enrichment (interaction score)),[36],< -7.06
same,binding signal (log2 enrichment (interaction score)),[37],-2.44
same,binding signal (log2 enrichment (interaction score)),[38],-0.72
same,binding signal (log2 enrichment (interaction score)),[39],-2.03
same,binding signal (log2 enrichment (interaction score)),[40],-1.34
same,binding signal (log2 enrichment (interaction score)),[41],-4.35
same,binding signal (log2 enrichment (interaction score)),[42],-5.45
same,binding signal (log2 enrichment (interaction score)),[43],< -9.99

# Copied from the results shown for reference:
sequence,measurement,setting,value
GGCUAGAACUAGUGGAUCCCCCGGCGCCCGGCGGCUCGAGCCCGGGUAAGUGUGAAUAGUCUGCAUGCCGCCGGGCGCCAUGCCUGCAGGUCGACUCUAGAAAACAUG,binding signal (log2 enrichment (interaction score)),[34],-3.59
same,binding signal (log2 enrichment (interaction score)),[35],-5.24
same,binding signal (log2 enrichment (interaction score)),[36],< -7.06
same,binding signal (log2 enrichment (interaction score)),[37],-2.44
same,binding signal (log2 enrichment (interaction score)),[38],-0.72
same,binding signal (log2 enrichment (interaction score)),[39],-2.03
same,binding signal (log2 enrichment (interaction score)),[40],-1.34
same,binding signal (log2 enrichment (interaction score)),[41],-4.35
same,binding signal (log2 enrichment (interaction score)),[42],-5.45
same,binding signal (log2 enrichment (interaction score)),[43],< -9.99
